# Experimental data published in PubChem BioAssay AID540276 (National Center for Advancing Translational Sciences (NCATS), 2011).
# “And” between values parts separate entries of the source, which are not always exact repeats. Equal values may be shown once. Hit rate of the full screen: of about 300,000 compounds, about 5,400 (1.8%) were called active. The shares of active, inactive and inconclusive entries below differ from those in the screen. Calls come from the whole dose curve; tested in HEK293 cells. A potency beside an inconclusive call is a rough fit, not a confirmed value. Non-standard residues stand in square brackets, D forms with d. Residues, ends and D or L forms follow the SMILES beside them. ξ: configuration not given here. ξLac(3-iPr) = CC(C)CC(O)C(=O)O; NMeV = CN[CH](C(=O)O)C(C)C; NMeA = CN[CH](C)C(=O)O; βAla = NCCC(=O)O
# Assay: qHTS for inhibitors of binding or entry into cells for Marburg Virus
# Conditions: Marburg virus pseudotyped entry inhibition, cell reporter; series mostly up to 37.8 µM
# Potency is the fitted concentration of half-maximal effect.
row,SMILES,Potency
1,CC(C)(C)n1nnnc1C(c1cccnc1)N(Cc1ccccc1)Cc1cccs1 (stereo not given),"inconclusive: 15.8 µM [inhibitor, single point]"
2,CN1CCN(C2=C(Cl)C(=O)N(c3cccc(Cl)c3)C2=O)CC1,"inconclusive: 0.92 µM [inhibitor, full curve, poor fit]"
3,Cc1cc2oc(C(=O)N(Cc3ccc(N(C)C)cc3)CC3CCCO3)c(C)c2cc1Cl (stereo not given),inactive
4,CSc1nc2ccc(NC(=O)C3=NN(c4ccccc4)C(=O)CC3)cc2s1,"inconclusive: 2.82 µM [inhibitor, partial curve, poor fit]"
5,CCC(C)C1NC(=O)C2CCCN2C(=O)C(CC(C)C)OC(=O)CCNC(=O)C(C)N(C)C(=O)C(C(C)C)N(C)C1=O (stereo not given) (cyclo([ξLac(3-iPr)]PI[NMeV][NMeA][βAla]); configuration not given here),active: 2 µM
6,Cc1ccc(CSCC(=O)N2CCOCC2)cc1,"inconclusive: 12.6 µM [activator, partial curve, poor fit]"
7,COC(=O)C1C(=O)C2=C(CC1C)NC(C)=C(C(=O)OC1CCCCC1)C2c1ccc(N(C)C)cc1 (stereo not given),"inconclusive: 35.5 µM [inhibitor, single point]"
8,COc1ccccc1NC(=O)CSc1nc2c(oc3ccccc32)c(=O)n1-c1ccccc1F,inactive
9,CCc1ccc(N2CC(C(=O)Nc3ccc(S(=O)(=O)N4CCOCC4)cc3)CC2=O)cc1 (stereo not given),inactive
10,CCCCCn1c(CN2CCN(C(=O)OCC)CC2)nc2c1c(=O)n(C)c(=O)n2C,"inconclusive: 0.82 µM [inhibitor, full curve]"
11,N#Cc1ccccc1OCC(=O)Nc1cccc(S(=O)(=O)N2CCCCCC2)c1,"inconclusive: 35.5 µM [inhibitor, single point]"
12,Cc1nc(-c2cccc(NC(=O)c3cc4cc(Br)ccc4oc3=O)c2)cs1,inactive
13,CC1(C)C(=O)N(c2ccccc2)C1c1ccccc1O (stereo not given),"inconclusive: 14.1 µM [inhibitor, partial curve, poor fit]"
14,COc1ccc(CCNC(=O)CSC2=NS(=O)(=O)c3cc(Cl)ccc3N2)cc1OC,inactive
15,COc1ccc(CC(=O)NC(C)c2ccc(Cl)c(Cl)c2)cc1S(=O)(=O)N1CCOCC1 (stereo not given),inactive
16,C=CCNC(=O)[C@H]1C=C(OC)C(=O)C[C@H](c2ccccc2)[C@H]1C,inactive
17,COc1ccccc1N1CCN(C(=O)c2cccc(N3C(=O)NC4CC3(C)Oc3ccccc34)c2)CC1 (stereo not given),"inconclusive: 1.12 µM [inhibitor, partial curve, poor fit]"
18,CN(CC(=O)Nc1ccc(Br)cc1)S(=O)(=O)c1cccc2nsnc12,inactive
19,CSc1nc(=S)n(-c2cc(C)ccc2C)c(C)c1C(C)=O,"inconclusive: 1.26 µM [activator, single point]"
20,COc1ccccc1CN(C)S(=O)(=O)c1cccs1,inactive
21,CCC(c1nnnn1C1CCCC1)N(Cc1cccs1)Cc1cc2cc(C)ccc2[nH]c1=O (stereo not given),"inconclusive: 8.91 µM [inhibitor, partial curve, poor fit]"
22,O=C(CCSc1ccccn1)Nc1ccc(Br)cc1,"inconclusive: 2.31 µM [activator, partial curve, poor fit]"

row,SMILES,Potency
1,Cc1cc2nc(CCN(Cc3cccnc3)C(=S)Nc3ccccc3)[nH]c2cc1C,inactive
2,CCOC(=O)C(=CNc1cccc(C)c1C)C(=O)OCC,"inconclusive: 29.1 µM [inhibitor, single point]"
3,Cc1cccc(N(C(=O)c2ccco2)C(C(=O)NC2CCCC2)c2ccco2)c1C (stereo not given),"inconclusive: 35.5 µM [inhibitor, single point]"
4,CCN(CC)C(=O)c1ccc(NC(=O)COc2ccc(-c3nn(C)c(=O)c4ccccc34)cc2)cc1,"inconclusive: 35.5 µM [inhibitor, single point] and inconclusive: 20 µM [inhibitor, partial curve, poor fit]"
5,CCN1C(=O)N[C@@H](c2cccc(F)c2)C(C(C)=O)=C1C,"inconclusive: 0.0033 µM [inhibitor, full curve, poor fit]"
6,CN(C)CC(C)(C)CNS(=O)(=O)c1ccc(OC(F)(F)F)cc1,"inconclusive: 0.794 µM [inhibitor, single point]"
7,O=C(COc1ccc(Cl)cc1)Nc1cccc(-c2ccc(N3CCOCC3)nn2)c1,"inconclusive: 35.5 µM [inhibitor, single point]"
8,NC(=O)c1ccc(N2CCNC(=O)C2)c([N+](=O)[O-])c1,inactive
9,CC(C)[N+](C)(C)CC#CC(O)(c1ccccc1)c1ccccc1,"inconclusive: 1.26 µM [inhibitor, single point]"
10,CC(C)(C)N(Cc1cc2ccccc2[nH]c1=O)C(=O)c1cccc([N+](=O)[O-])c1,inactive
11,O=C(c1cc(-c2ccc(Cl)cc2)on1)N1CCCCCC1,"inconclusive: 3.55 µM [activator, partial curve, poor fit]"
12,O=C(N/C=N/OCc1ccc(Cl)cc1Cl)NOCc1c(Cl)cccc1Cl,"inconclusive: 35.5 µM [inhibitor, single point]"
13,COc1ccccc1Cn1c(=O)oc2ccc(C)cc21,"inconclusive: 10 µM [inhibitor, single point]"
14,CNC(=S)N1CCn2cccc2C1c1cc(OC)c(OC)c(OC)c1 (stereo not given),"inconclusive: 15.8 µM [inhibitor, single point]"
15,Cn1c(=O)c2c(nc(CN3CCc4ccccc4C3)n2Cc2ccc(F)cc2)n(C)c1=O,"inconclusive: 17.8 µM [inhibitor, single point]"
16,O=Cc1cccn1-c1cccc([N+](=O)[O-])c1,inactive
17,O=C(Cc1cn(Cc2cccc(Cl)c2)c2ccccc12)N1CCCC1,"inconclusive: 11.2 µM [inhibitor, partial curve]"
18,COc1ccc(NC(=O)CSc2nnc(Cn3cnc([N+](=O)[O-])n3)n2C)cc1,inactive
19,CN(C)c1nc(NCc2ccccc2)nc(N/N=C/c2ccc(Cl)cc2Cl)n1,"inconclusive: 1.46 µM [inhibitor, partial curve, poor fit]"
20,C/C(=N\NC(=O)c1ccccc1Br)c1ccc(N2CCOCC2)cc1,"inconclusive: 35.5 µM [activator, single point]"
21,O=C(Nc1cccc(C(F)(F)F)c1)c1cccnc1NCCc1ccccc1,"inconclusive: 16.4 µM [activator, partial curve, poor fit]"
22,Cc1ccc(NC(=O)NC(C)c2c(-n3cccc3)sc(C)c2C)cc1F (stereo not given),"inconclusive: 31.6 µM [inhibitor, partial curve, poor fit]"

# In another format: three of the compounds above
row | SMILES | Potency
14 | CNC(=S)N1CCn2cccc2C1c1cc(OC)c(OC)c(OC)c1 (stereo not given) | inconclusive: 15.8 µM [inhibitor, single point]
15 | Cn1c(=O)c2c(nc(CN3CCc4ccccc4C3)n2Cc2ccc(F)cc2)n(C)c1=O | inconclusive: 17.8 µM [inhibitor, single point]
16 | O=Cc1cccn1-c1cccc([N+](=O)[O-])c1 | inactive

# Remaining list, next part.

row,SMILES,Potency
1,Cc1cccn2c(=O)c3cc(C(=O)NCCc4ccccc4)sc3nc12,"inconclusive: 35.5 µM [inhibitor, single point]"
2,COc1ccc(C(CNC(=O)c2cccc(S(=O)(=O)Nc3ccccc3OC)c2)N2CCCC2)cc1 (stereo not given),"inconclusive: 11.2 µM [inhibitor, partial curve, poor fit]"
3,O=C(Nc1ccccc1)Nc1cccn(Cc2c(F)cccc2Cl)c1=O,"inconclusive: 16.4 µM [inhibitor, single point]"
4,CCn1c(O)c(/C=C2\C=NN=C2c2ccc(C)cc2)sc1=S,inactive
5,COc1ccc(C(=O)COC(=O)c2nn(C)cc2Cl)cc1,"inconclusive: 12.6 µM [activator, partial curve, poor fit]"
6,CCN(CC)CCCN(C(=O)c1ccco1)c1nc(-c2ccc(Cl)cc2)cs1,"inconclusive: 11.2 µM [inhibitor, partial curve, poor fit]"
7,O=c1[nH]c(=O)n(C2OC(CO)C(O)C2O)cc1F (stereo not given),"inconclusive: 2.82 µM [inhibitor, full curve, poor fit]"
8,CCCc1nc2ccccc2c2nc(N)nn12,inactive
9,COc1cccc(-c2nc3ccc([N+](=O)[O-])cc3o2)c1,"inconclusive: 3.55 µM [activator, single point]"
10,Cc1ccc(-c2nc(S(=O)(=O)c3ccc(C)cc3)c(SCC(=O)c3ccccc3)o2)cc1,"inconclusive: 35.5 µM [inhibitor, single point]"
11,Cc1cc(Nc2ccc3c(c2)OCCO3)c2ccccc2n1,"inconclusive: 15.8 µM [inhibitor, single point]"
12,CCNC(=O)CSc1nc(-c2ccc(F)cc2)cs1,inactive
13,O=C(Nc1ccccc1F)c1nc(SCc2ccccc2F)ncc1Cl,inactive
14,CSc1ccc(/C=C2/C(=N)N3N=C(CC(=O)N4CCCC4)SC3=NC2=O)cc1,inactive
15,Clc1ccc(CSc2nccn2Cc2ccccc2)cc1,"inconclusive: 29.1 µM [inhibitor, single point]"
16,CCN(CCCNC(=O)c1cc(Nc2ccc(OC)cc2)nc2ccccc12)c1cccc(C)c1,"inconclusive: 3.98 µM [inhibitor, full curve, poor fit]"
17,CCOc1ccc(S(=O)(=O)Nc2ccc3c(c2)OCO3)c2cccnc12,inactive
18,CCN(CC)CC(=O)Nc1sc(C)c(C)c1C(=O)c1ccc(C)cc1,"inconclusive: 35.5 µM [inhibitor, single point]"
19,Cc1ccc(S(=O)(=O)N2CCC(C(=O)Nc3ccc(S(=O)(=O)N4CCCC4)cc3)CC2)cc1C,"inconclusive: 28.2 µM [inhibitor, partial curve, poor fit]"
20,COC(=O)c1ccc(N=NNc2ccc(C(=O)OC)cc2)cc1,"inconclusive: 2.51 µM [inhibitor, full curve, poor fit]"
21,CC(C)(C)C(=O)N1CCN(c2ccc([N+](=O)[O-])c(NCc3cccnc3)c2)CC1,inactive
